Measurements reported in patent publication EP0444546B1, “Hydantoin derivatives for use as hypoglycemic and/or hypolipidemic agents” (MOCHIDA PHARMACEUTICAL CO., LTD., priority 1990, dated 1991).
Some of these results come from one statement about several compounds together.

Test system: ICR strain mice
Assay: Acute toxicity in mice
Assay type: in vivo
Conditions: oral dose of 1 g/kg, one-week period after the administration
From the text: Hydantoin derivatives of the present invention were examined for acute toxicity.

Structure (SMILES)	acute toxicity
O=C1CN(S(=O)(=O)c2cc3cc(Cl)ccc3o2)C(=O)N1 [Compound 14, 1-(5-chlorobenzo[b]furan-2-ylsulfonyl)hydantoin]	no change was observed
O=C1CN(S(=O)(=O)c2cc3cc(Br)ccc3o2)C(=O)N1 [Compound 13, 1-(5-bromobenzo[b]furan-2-ylsulfonyl)hydantoin]	no change was observed
Cc1ccc2cc(S(=O)(=O)N3CC(=O)NC3=O)ccc2c1[N+](=O)[O-] [Compound 4, 1-(6-methyl-5-nitronaphthalen-2-ylsulfonyl)hydantoin]	no change was observed
O=C1CN(S(=O)(=O)c2cc3cc(Cl)c(Cl)cc3o2)C(=O)N1 [Compound 27, 1-(5,6-dichlorobenzo[b]furan-2-ylsulfonyl)hydantoin]	no change was observed
O=C1CN(S(=O)(=O)c2cc3c(Cl)c(Cl)ccc3o2)C(=O)N1 [Compound 26, 1-(4,5-dichlorobenzo[b]furan-2-ylsulfonyl)hydantoin]	no change was observed
O=C1CN(S(=O)(=O)c2sc3ccccc3c2Cl)C(=O)N1 [Compound 11, 1-(3-chlorobenzo[b]thien-2-ylsulfonyl)hydantoin]	no change was observed
O=C1CN(S(=O)(=O)c2oc3c(F)cccc3c2Br)C(=O)N1 [Compound 28, 1-(3-bromo-7-fluorobenzo[b]furan-2-ylsulfonyl)hydantoin]	no change was observed
COc1ccc2cc(S(=O)(=O)N3CC(=O)NC3=O)ccc2c1[N+](=O)[O-] [Compound 6, 1-(6-methoxy-5-nitronaphthalen-2-ylsulfonyl)hydantoin]	no change was observed
Cc1ccc2ccc(S(=O)(=O)N3CC(=O)NC3=O)cc2c1 [Compound 5, 1-(7-methylnaphthalen-2-ylsulfonyl)hydantoin]	no change was observed
O=C1CN(S(=O)(=O)c2cc3c(Cl)cccc3s2)C(=O)N1 [Compound 12, 1-(4-chlorobenzo[b]thien-2-ylsulfonyl)hydantoin]	no change was observed
O=C1CN(S(=O)(=O)c2cc3cccc(F)c3o2)C(=O)N1 [Compound 25, 1-(7-fluorobenzo[b]furan-2-ylsulfonyl)hydantoin]	no change was observed
